Results are given in words; binding and its absence hold for the method and conditions named. For some assays here: Binding seen in cells or lysates may run through a third protein. Some binding calls cover weakened binding; strength is not graded here.

Sequences of proteins named here, by UniProt entry; tags and fusion partners are left off.
UniProt P30658: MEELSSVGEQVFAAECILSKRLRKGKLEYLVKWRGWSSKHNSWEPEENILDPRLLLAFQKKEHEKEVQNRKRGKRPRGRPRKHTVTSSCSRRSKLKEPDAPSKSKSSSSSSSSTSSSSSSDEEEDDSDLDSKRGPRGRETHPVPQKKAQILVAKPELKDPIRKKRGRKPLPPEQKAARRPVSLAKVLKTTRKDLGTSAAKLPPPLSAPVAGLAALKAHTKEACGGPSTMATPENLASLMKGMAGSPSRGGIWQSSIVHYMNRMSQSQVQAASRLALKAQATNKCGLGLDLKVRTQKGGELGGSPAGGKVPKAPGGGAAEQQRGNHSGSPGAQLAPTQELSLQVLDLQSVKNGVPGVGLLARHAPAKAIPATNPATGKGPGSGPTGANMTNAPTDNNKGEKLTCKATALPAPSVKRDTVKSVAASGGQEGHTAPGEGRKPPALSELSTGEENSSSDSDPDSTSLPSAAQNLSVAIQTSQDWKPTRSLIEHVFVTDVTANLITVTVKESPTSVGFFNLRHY
UniProt Q8VDS3: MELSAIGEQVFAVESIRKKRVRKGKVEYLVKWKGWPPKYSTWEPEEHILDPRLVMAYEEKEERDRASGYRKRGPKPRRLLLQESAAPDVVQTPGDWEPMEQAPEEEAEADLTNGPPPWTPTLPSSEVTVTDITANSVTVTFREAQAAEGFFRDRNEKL
UniProt Q9CQJ4: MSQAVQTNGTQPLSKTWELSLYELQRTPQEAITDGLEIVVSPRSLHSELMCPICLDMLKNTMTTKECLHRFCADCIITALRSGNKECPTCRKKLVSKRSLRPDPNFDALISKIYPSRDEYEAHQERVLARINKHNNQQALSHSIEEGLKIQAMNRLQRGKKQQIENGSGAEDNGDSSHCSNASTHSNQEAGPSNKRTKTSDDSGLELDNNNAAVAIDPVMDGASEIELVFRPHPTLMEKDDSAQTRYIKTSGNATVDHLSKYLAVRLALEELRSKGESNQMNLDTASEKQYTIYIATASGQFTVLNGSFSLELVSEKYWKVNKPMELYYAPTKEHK

Assay [1] addresses CBX2 (FLAG-tagged, co-expressed with RING1b) (UniProt P30658). The experiment in a line: co-purification on anti-FLAG resin.
A further assay deals with mEGFP-CBX7 (Sf9) (UniProt Q8VDS3). The assay is described as follows: co-purification on anti-FLAG resin.
In a further assay the target is mEGFP-CBX2 (Sf9) (UniProt P30658). The assay is described as follows: co-purification on anti-FLAG resin.
Assay [2] has as its target mEGFP-CBX2 (3T3 fibroblasts) (UniProt P30658). The assay is described as follows: co-IP.

Take “RING1b (co-expressed with CBX proteins in Sf9) (from UniProt Q9CQJ4 1-336)”: the binding result (in assay [1]; with mEGFP-CBX7 (Sf9); in the assay with mEGFP-CBX2 (Sf9)) was “binds” each time.
“RING1b (endogenous, 3T3 fibroblasts) (from UniProt Q9CQJ4 1-336)”: in assay [2], the binding entry is “binds”.

B1: PHC1 (endogenous, 3T3 fibroblasts) (protein, UniProt Q64028 1-1010)
chain: METESEQNSSSTNGSSSSGASSRPQIAQMSLYERQAVQALQALQRQPNAAQYFHQFMLQQQLSNAQLHSLAAVQQATIAASRQASSPNSSTAQQQTATTQASMNLATTSAAQLISRSQSVSSPSATTLTQSVLLGNTTSPPLNQSQAQMYLRPQLGNLLQVNRTLGRNVPLASQLILMPNGAVAAVQQEVPPAQSPGVHADADQVQNLAVRNQQASAQGPQMPGSTQKAIPPGASPVSGLSQTSSQALAVAQASSGASGQSLNLSQAGGGSGNSLPGSMGPGGGGQAPGGLGQLPSSGLTGGSCPRKGTGVVQPLPAAQTVTVSQGSQTEAESAAAKKAEADGSGQQSVGMNLTRTATPAPSQTLISSATYTQIQPHSLIQQQQQIHLQQKQVVIQQQIAIHHQQQFQHRQSQLLHTATHLQLAQQQQQQQQQQQQQQQQQQQQQQGTTLTAPQPPQVPPTQQVPPSQSQQQAQTLVVQPMLQSSPLTLPPEPTSKPPIPIQSKPPVAPIKPPQLGAAKMSATQQPPPHIPVQVVGTRQPGSAQAQALGLAQLAAAVPTPRGITGAVQPGQAHLASSPPSSQAAPGALQECPPALAAGMTLAPVQGTAHVVKGGPTASSPVVAQVPAAFYMQSVHLPGKAQTLAVKRKAESEEERDDLSALASVLPTKASPAAESPKVIEEKNSLGEKAEPVASLNANPPNSDLVALAPTPSAPPPTLALVSRQMGDSKPPQAIVKPQILTHIIEGFVIQEGAEPFPVGCSQFLKETKKPLQAGLPTGLNESQPSGPLGGDSPSVELEKKANLLKCEYCGKYAPAEQFRGSKRFCSMTCAKRYNVSCSHQFRLKRKKMKEFQEASYARVRRRGPRRSSSDIARAKIQGKRHRGQEDSSRGSDNSSYDEALSPTSPGPLSVRAGHGERDLGNTITTPSTPELQGINPVFLSSNPSQWSVEEVYEFIASLQGCQEIAEEFRSQEIDGQALLLLKEEHLMSAMNIKLGPALKICAKINVLKET
Turning to B1, the binding entry in assay [2] is given as “binds”.

For the origin of these results see doi:10.1101/467316.
